Measurements published in article PMC8824877.
Results are given in words; binding and its absence hold for the method and conditions named. Binding seen in cells or lysates may run through a third protein. Some results given as binding are weak or reduced against the parent protein; the word gives no strength.

The chains behind the UniProt entries cited, without tags or fusion partners.
UniProt P53355: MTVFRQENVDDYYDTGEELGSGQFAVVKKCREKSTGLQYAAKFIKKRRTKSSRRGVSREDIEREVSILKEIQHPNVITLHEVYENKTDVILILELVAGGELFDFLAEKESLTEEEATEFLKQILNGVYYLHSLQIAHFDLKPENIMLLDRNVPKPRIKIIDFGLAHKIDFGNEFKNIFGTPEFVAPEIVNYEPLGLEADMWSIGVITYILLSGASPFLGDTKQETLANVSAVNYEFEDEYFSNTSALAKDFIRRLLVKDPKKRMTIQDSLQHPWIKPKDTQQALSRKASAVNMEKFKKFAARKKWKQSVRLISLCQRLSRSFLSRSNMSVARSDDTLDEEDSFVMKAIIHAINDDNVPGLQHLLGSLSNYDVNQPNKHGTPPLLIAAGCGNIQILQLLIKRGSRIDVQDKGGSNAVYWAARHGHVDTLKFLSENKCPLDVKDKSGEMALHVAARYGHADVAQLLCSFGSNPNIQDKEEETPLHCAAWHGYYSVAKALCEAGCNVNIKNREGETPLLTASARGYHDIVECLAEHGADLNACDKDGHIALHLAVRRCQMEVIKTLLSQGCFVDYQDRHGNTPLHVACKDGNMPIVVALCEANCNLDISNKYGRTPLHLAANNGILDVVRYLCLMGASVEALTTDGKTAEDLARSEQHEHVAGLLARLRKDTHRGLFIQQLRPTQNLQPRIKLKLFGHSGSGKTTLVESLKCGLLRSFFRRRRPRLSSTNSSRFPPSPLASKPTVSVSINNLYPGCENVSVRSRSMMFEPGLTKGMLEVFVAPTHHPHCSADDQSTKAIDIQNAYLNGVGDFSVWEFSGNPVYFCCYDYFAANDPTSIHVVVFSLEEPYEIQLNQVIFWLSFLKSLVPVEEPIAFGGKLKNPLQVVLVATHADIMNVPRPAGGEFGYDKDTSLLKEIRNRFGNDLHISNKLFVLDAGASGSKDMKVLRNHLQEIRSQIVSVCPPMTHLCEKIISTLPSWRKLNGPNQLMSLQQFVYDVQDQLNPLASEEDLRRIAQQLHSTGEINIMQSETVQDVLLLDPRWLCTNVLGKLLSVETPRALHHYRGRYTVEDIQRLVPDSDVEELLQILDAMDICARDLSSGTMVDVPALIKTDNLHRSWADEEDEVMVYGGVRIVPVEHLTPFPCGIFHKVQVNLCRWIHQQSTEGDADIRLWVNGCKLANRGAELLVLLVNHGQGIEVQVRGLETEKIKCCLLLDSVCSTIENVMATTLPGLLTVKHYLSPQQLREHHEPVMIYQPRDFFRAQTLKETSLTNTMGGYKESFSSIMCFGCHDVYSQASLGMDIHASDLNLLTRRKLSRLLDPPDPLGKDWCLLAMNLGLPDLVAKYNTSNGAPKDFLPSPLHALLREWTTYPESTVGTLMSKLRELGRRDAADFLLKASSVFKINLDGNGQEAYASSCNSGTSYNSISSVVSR
UniProt P53350: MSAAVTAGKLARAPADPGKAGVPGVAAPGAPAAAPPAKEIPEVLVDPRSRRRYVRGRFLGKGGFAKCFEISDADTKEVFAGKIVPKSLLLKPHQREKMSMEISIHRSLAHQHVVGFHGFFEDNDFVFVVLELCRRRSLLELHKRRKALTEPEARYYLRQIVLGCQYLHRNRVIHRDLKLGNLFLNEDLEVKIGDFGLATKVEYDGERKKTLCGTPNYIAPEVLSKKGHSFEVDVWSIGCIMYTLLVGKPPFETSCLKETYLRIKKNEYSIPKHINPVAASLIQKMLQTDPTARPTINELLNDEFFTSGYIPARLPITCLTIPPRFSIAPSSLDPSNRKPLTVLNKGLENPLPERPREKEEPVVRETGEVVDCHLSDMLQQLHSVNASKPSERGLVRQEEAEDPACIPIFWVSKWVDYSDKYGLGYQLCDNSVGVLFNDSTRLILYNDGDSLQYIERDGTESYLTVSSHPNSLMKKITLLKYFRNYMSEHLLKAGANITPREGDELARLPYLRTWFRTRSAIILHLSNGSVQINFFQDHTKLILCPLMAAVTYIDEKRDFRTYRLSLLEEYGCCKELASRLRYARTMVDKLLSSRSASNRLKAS

Molecular target: Flag-DAPK1 (UniProt P53355)
Assay: co-IP; HeLa cells overexpressing V5-PLK1 and Flag-DAPK; IP with V5- or Flag-specific antibodies; precipitates and 5% of the input immunoblotted

- binding: binds
Substance: V5-tagged PLK1 (from UniProt P53350 1-603)
